Measurements reported in PubChem BioAssay AID1224828 (NIAID, 2016).

Assay: 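Knock-downs that increase or decrease LPS-induced p65 nuclear translocation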 (primary screen)
Cells: mouse RAW264.7 G9 macrophage reporter cells (GFP-p65, Tnf promoter-mCherry)
Reagent: siRNA pool against mouse genes, 100 nM
Time to read-out: 2 days siRNA transfection, then 40 min LPS before fixation
Challenge: LPS (Salmonella minnesota R595) at 10 ng/ml
Measurement: 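Microscopy ratio of nuclear to perinuclear-ring GFP-p65 signal, scaled to the plate median; gene score is the average of two replicate robust z-scores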
Scale: p65 translocation robust z-score: higher = more nuclear NF-kappaB p65 after LPS than the plate median; nuclear/cytoplasmic p65 ratio: higher = more nuclear NF-kappaB p65
Rule for the call: 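Active if robust z is above 3.3 (negative regulators) or below -1.56, the Tlr4 control median (positive regulators); activity score 50 or more; control wells not called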
Calls: active = hit (p65 shift raised or lowered); inactive = no clear change
The whole screen tested about 17,000 reagents; shown is a part drawn at random. Of all reagents, 762 (4.5%) are marked active. 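Active calls include both raised and lowered p65 entry, mostly lowered; wells with fewer than 50 cells lack a z-score.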 Raw values are not corrected between plates.

Vmn1r83 scored p65 translocation robust z-score -0.32; nuclear/cytoplasmic p65 ratio, rep 1 = 1.3; nuclear/cytoplasmic p65 ratio, rep 2 = 1.24; low cell count flag enough cells to score; inactive.
Against Or4n4b, the entry reads nuclear/cytoplasmic p65 ratio, rep 1 = 1.47; nuclear/cytoplasmic p65 ratio, rep 2 = 1.4; low cell count flag fewer than 50 cells per well; well left out of scoring; inactive.
Nckap5 showed p65 translocation robust z-score 0.41; nuclear/cytoplasmic p65 ratio, rep 1 = 1.63; nuclear/cytoplasmic p65 ratio, rep 2 = 1.86; low cell count flag enough cells to score; inactive.
For Mcf2l, the values are p65 translocation robust z-score 1.97; nuclear/cytoplasmic p65 ratio, rep 1 = 1.93; nuclear/cytoplasmic p65 ratio, rep 2 = 1.91; low cell count flag enough cells to score; inactive.
For Avpi1 the deposit lists p65 translocation robust z-score 0.41; nuclear/cytoplasmic p65 ratio, rep 1 = 1.74; nuclear/cytoplasmic p65 ratio, rep 2 = 1.49; low cell count flag enough cells to score; inactive.
Against Smim3 the deposit lists nuclear/cytoplasmic p65 ratio, rep 1 = 1.06; nuclear/cytoplasmic p65 ratio, rep 2 = 0.862; low cell count flag fewer than 50 cells per well; well left out of scoring; inactive.
Dhodh scored p65 translocation robust z-score 0.68; nuclear/cytoplasmic p65 ratio, rep 1 = 1.6; nuclear/cytoplasmic p65 ratio, rep 2 = 1.44; low cell count flag enough cells to score; inactive.
With knock-down of Rgs1, the record shows p65 translocation robust z-score -0.59; nuclear/cytoplasmic p65 ratio, rep 1 = 1.43; nuclear/cytoplasmic p65 ratio, rep 2 = 1.22; low cell count flag enough cells to score; inactive.
Depletion of Commd8 gave: p65 translocation robust z-score 1.4; nuclear/cytoplasmic p65 ratio, rep 1 = 1.85; nuclear/cytoplasmic p65 ratio, rep 2 = 1.94; low cell count flag enough cells to score; inactive.
Silencing of Ceacam11 gave: p65 translocation robust z-score 1.12; nuclear/cytoplasmic p65 ratio, rep 1 = 1.68; nuclear/cytoplasmic p65 ratio, rep 2 = 2.06; low cell count flag enough cells to score; inactive.
Knock-down of Tmprss15 gave: p65 translocation robust z-score -0.28; nuclear/cytoplasmic p65 ratio, rep 1 = 1.51; nuclear/cytoplasmic p65 ratio, rep 2 = 1.33; low cell count flag enough cells to score; inactive.
For Elk1, the values are p65 translocation robust z-score -0.14; nuclear/cytoplasmic p65 ratio, rep 1 = 1.26; nuclear/cytoplasmic p65 ratio, rep 2 = 1.34; low cell count flag enough cells to score; inactive.
For Slc1a4 the deposit lists p65 translocation robust z-score -0.54; nuclear/cytoplasmic p65 ratio, rep 1 = 1.38; nuclear/cytoplasmic p65 ratio, rep 2 = 1.16; low cell count flag enough cells to score; inactive.
With knock-down of Tet2, the record shows p65 translocation robust z-score 1.01; nuclear/cytoplasmic p65 ratio, rep 1 = 1.54; nuclear/cytoplasmic p65 ratio, rep 2 = 1.55; low cell count flag enough cells to score; inactive.

Reformatted: 2 of the entries above.
Target gene	p65 translocation robust z-score	nuclear/cytoplasmic p65 ratio, rep 1	nuclear/cytoplasmic p65 ratio, rep 2	low cell count flag	outcome
Mcf2l	1.97	1.93	1.91	enough cells to score	inactive
Avpi1	0.41	1.74	1.49	enough cells to score	inactive
